These are yes or no findings as the source states them, for the method shown. Some binding calls cover weakened binding; strength is not graded here. Tags and fused reporters may be left off the sequences shown.
Experiments:
[1] = biological target: T1, YheL subunit of the E. coli YheNML / YheML constructs, with C-terminal GFP S11 tag (Escherichia coli) (UniProt P45530); test: colony filtration immobilized bead assay, capture plate with TNG buffer (FIG. 4B); untagged YheM co-expressed
T1 sequence: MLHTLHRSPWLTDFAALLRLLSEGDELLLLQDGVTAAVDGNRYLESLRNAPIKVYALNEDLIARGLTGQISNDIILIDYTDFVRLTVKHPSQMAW

[2] = biological target: T1, YheL subunit of the E. coli YheNML / YheML constructs, with C-terminal GFP S11 tag (Escherichia coli); test: mock library of YheNML and YheML colonies, Talon capture plate, identity of picks by PCR (FIG. 11); untagged YheM co-expressed
[3] = biological target: T1, YheL subunit of the E. coli YheNML / YheML constructs, with C-terminal GFP S11 tag (Escherichia coli); test: mock library of YheNML and YheML colonies (1:25), Talon capture plate; compact spots picked and identified by PCR; untagged YheM co-expressed
[4] = biological target: T1, YheL subunit of the E. coli YheNML / YheML constructs, with C-terminal GFP S11 tag (Escherichia coli); test: colony filtration immobilized bead assay, capture plates with TNG buffer (FIG. 4B); complex 1; untagged YheM co-expressed
[5] = biological target: T1, YheL subunit of the E. coli YheNML / YheML constructs, with C-terminal GFP S11 tag (Escherichia coli); test: mock library of YheNML in 25-fold excess of YheML colonies, Talon capture plate (FIG. 2C); untagged YheM co-expressed
[6] = biological target: T1, YheL subunit of the E. coli YheNML / YheML constructs, with C-terminal GFP S11 tag (Escherichia coli); test: colony filtration immobilized bead assay: 6-His subunit captured on Talon resin in agarose, co-captured GFP S11 subunit read by complemented GFP fluorescence; untagged YheM co-expressed

Measured: binding

B1: YheN subunit of the E. coli YheNML complex, with N-terminal 6-His tag (protein)
chain: MRFAIVVTGPAYGTQQASSAFQFAQALIADGHELSSVFFYREGVYNANQLTSPASDEFDLVRAWQQLNAQHGVALNICVAAALRRGVVDETEAGRLGLASSNLQQGFTLSGLGALAEASLTCDRVVQF
binds: [1] | [2] | [3] | [4] | [5] | [6]

Reference: patent US20140024555A1 (LOS ALAMOS NATIONAL SECURITY, published 2014)
